{
  "sequences": {"note": "By UniProt entry, the sequences of proteins in these tests, tags left out.", "UniProt O75376": "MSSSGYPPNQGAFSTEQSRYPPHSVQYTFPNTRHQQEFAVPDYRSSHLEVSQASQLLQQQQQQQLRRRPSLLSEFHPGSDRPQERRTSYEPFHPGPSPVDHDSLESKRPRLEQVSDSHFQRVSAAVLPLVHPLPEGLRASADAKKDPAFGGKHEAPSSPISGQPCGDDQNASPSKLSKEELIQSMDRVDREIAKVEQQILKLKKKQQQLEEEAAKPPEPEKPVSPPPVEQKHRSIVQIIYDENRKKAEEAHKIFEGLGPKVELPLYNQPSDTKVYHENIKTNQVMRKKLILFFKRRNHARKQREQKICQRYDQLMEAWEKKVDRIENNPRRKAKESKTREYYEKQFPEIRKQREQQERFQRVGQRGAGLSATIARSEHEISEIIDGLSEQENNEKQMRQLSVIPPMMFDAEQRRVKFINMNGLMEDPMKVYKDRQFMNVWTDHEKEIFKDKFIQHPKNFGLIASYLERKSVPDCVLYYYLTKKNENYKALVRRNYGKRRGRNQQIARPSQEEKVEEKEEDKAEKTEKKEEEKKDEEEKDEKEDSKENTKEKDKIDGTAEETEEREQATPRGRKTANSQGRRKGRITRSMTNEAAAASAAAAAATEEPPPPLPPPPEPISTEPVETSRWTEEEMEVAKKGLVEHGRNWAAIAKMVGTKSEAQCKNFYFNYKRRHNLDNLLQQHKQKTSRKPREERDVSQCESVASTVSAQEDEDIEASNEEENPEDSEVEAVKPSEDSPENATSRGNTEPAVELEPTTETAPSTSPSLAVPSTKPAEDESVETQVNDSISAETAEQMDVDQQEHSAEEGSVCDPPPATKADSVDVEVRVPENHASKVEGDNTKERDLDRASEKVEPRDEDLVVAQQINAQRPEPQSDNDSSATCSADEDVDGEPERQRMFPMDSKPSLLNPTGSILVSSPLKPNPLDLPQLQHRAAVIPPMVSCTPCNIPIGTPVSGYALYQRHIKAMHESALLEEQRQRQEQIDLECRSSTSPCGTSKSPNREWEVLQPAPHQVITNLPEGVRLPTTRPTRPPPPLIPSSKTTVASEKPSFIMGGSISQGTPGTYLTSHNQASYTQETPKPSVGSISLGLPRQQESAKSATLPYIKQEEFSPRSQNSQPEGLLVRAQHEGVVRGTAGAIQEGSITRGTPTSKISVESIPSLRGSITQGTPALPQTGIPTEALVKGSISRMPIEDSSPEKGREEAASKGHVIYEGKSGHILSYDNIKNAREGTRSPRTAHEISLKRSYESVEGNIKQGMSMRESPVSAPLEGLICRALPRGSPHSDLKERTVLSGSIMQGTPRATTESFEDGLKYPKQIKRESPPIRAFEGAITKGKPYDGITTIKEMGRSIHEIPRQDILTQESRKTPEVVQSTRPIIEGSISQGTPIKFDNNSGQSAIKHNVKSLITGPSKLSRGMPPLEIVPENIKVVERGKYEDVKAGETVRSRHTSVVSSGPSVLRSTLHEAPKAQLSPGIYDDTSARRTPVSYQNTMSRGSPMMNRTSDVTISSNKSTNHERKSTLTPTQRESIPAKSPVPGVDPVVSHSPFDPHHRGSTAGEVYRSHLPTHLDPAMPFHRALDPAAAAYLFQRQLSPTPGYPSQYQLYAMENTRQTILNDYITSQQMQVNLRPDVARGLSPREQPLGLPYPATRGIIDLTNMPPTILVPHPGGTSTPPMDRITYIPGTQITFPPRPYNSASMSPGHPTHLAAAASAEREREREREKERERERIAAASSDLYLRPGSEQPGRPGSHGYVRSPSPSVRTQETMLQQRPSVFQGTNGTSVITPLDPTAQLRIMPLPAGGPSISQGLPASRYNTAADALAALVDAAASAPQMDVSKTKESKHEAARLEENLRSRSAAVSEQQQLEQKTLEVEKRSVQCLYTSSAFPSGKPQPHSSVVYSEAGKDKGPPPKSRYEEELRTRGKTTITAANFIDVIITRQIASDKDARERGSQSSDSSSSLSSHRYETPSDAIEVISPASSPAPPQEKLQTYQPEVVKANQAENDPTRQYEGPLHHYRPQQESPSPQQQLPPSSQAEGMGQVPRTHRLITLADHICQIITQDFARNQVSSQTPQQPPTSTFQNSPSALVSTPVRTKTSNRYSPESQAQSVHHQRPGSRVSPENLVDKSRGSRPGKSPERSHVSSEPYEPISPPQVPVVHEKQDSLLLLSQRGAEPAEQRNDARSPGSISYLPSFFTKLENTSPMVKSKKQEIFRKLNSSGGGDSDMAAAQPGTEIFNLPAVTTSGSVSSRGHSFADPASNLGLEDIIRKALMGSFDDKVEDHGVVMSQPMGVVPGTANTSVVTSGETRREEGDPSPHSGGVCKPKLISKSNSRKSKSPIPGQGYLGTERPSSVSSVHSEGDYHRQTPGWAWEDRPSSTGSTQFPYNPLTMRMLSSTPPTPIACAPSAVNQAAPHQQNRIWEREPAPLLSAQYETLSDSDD"},
  "source": "paper PMC11224269",
  "molecular_target": "biotinylated pY54-H3 peptide, pY54-H3 (44-59) (human)",
  "assay": "pull-down; biotinylated peptide on streptavidin-sepharose beads incubated with lysates of VCaP cells treated with 1 uM (R)-9b or SHP099 for 18 h; immunoblot for NCOR1 and NCOR2; pAKT peptide as control; only the target purified",
  "note": "These are yes or no findings as the source states them, for the method shown. In cells and extracts the contact can be indirect. Some binding calls cover weakened binding; strength is not graded here.",
  "data": [
    {"substance": "NCOR1 (from UniProt O75376 1-2440)", "values": [
      {"measurement": "binding", "value": "binds"}
    ]}
  ]
}
